Source: paper PMC10432976
These are yes or no findings as the source states them, for the method shown. Binding seen in cells or lysates may run through a third protein. Here binding means that the protein was enriched with, or labelled near, the bait; the list need not be complete. Sequences can lack the tags named with a protein. One block for each molecule: values may come before it.

Amino acid sequences for entries named in this document (tags omitted).
UniProt Q91WK0: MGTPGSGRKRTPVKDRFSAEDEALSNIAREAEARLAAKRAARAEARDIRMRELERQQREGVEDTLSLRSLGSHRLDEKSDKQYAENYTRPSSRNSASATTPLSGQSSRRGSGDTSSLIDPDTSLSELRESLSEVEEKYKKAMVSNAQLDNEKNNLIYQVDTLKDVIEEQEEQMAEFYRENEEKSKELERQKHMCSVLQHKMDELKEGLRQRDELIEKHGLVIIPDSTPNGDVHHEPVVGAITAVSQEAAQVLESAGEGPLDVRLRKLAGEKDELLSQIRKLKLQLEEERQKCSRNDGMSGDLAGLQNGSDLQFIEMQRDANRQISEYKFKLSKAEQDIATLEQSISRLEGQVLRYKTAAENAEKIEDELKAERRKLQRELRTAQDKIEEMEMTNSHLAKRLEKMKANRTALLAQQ

How the values were obtained:
[1] = target: T1, Flag-TRB3 (expressed in Min6 cells) (UniProt Q8K4K2); test: affinity purification with mass spectrometry; Flag-TRB3 (adenovirus) or HA-TRB3 (lentivirus) in Min6 pseudoislets; anti-Flag or anti-HA agarose 4 h; NEHN buffer (150 mM NaCl, 0.5 mM EDTA, 20 mM Hepes pH 7.8, 0.5% NP-40); GFP adenovirus or RFP lentivirus as control; LC-MS/MS of tryptic digests
T1 sequence: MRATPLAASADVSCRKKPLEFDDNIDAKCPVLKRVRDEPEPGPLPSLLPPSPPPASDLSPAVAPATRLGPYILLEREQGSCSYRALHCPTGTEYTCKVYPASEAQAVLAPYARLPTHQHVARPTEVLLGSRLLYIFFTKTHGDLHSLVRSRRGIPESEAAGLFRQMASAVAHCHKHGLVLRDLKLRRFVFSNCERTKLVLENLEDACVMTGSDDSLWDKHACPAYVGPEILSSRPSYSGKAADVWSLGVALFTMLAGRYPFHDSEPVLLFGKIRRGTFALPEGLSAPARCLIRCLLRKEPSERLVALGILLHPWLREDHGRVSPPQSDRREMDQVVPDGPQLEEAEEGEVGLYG

[2] = target: T2, Myc-APEX2-TRB3 (UniProt Q8K4K2); test: proximity labelling; APEX2-TRB3 in Min6 cells; biotin-phenol (2 mM biotin-tyramide) 2 h, 0.5 mM H2O2 for 1 min; streptavidin-agarose pull-down, blot for Fli1; without or with IL1β for 30 min
T2 sequence: T1 sequence

binding [1]: binds
Molecule: endogenous LRRFIP2 (leucine-rich repeat Flightless interacting protein) of Min6 cells (from UniProt Q91WK0 1-415)

binding [2]: binds
binding [1]: binds
B1: endogenous Flightless homolog 1 (Fli1) of Min6 cells (protein, UniProt Q9JJ28 1-1271)
chain: MEATGVLPFVRGVDLSGNDFKGGYFPENVKAMTSLRWLKLNRTGLCYLPEELAALQKLEHLSVSHNHLTTLHGELSSLPSLRAIVARANSLKNSGVPDDIFKLDDLSVLDLSHNQLTECPRELENAKNMLVLNLSHNGIDSIPNQLFINLTDLLYLDLSENRLESLPPQMRRLVHLQTLVLNGNPLLHAQLRQLPAMMALQTLHLRNTQRTQSNLPTSLEGLSNLSDVDLSCNDLTRVPECLYTLPSLRRLNLSSNQIAELSLCIDQWVHLETLNLSRNQLTSLPSAICKLTKLKKLYLNSNKLDFDGLPSGIGKLTSLEEFMAANNNLELIPESLCRCPKLKKLVLNKNRLVTLPEAIHFLTEIQVLDVRENPSLVMPPKPADRTAEWYNIDFSLQNQLRLAGASPATVAAAAAVGSGSKDPLARKMRLRRRKDSAQDVQAKQVLKGMSDVAQEKNKNQEESIDARAPGGKVRRWDQGLEKPRLDYSEFFTEDVGQLPGLTIWQIENFVPVLVEEAFHGKFYEADCYIVLKTFLDDSGSLNWEIYYWIGGEATLDKKACSAIHAVNLRNYLGAECRTVREEMGDESEEFLQVFDNDISYIEGGTASGFYTVEDTHYVTRMYRVYGKKNIKLEPVPLKGSSLDPRFVFLLDQGLDIYVWRGAQATLSNTTKARLFAEKINKNERKGKAEITLLVQGQEPPGFWDVLGGEPSEIKNHVPDDFWPPQPKLYKVGLGLGYLELPQINYKLSVEHKKRPKVELMPGMRLLQSLLDTRCVYILDCWSDVFIWLGRKSPRLVRAAALKLGQELCGMLHRPRHTVVSRSLEGTEAQVFKAKFKNWDDVLTVDYTRNAEAVLQGQGLSGKVKRDTEKTDQMKADLTALFLPRQPPMPLAEAEQLMEEWNEDLDGMEGFVLEGRKFTRLPEEEFGHFYTQDCYVFLCRYWVPVEYEEEEKTEDKEGKASAEAREGEEAAAEAEEKQPEEDFQCIVYFWQGREASNMGWLTFTFSLQKKFESLFPGKLEVVRMTQQQENPKFLSHFKRKFIIHRGKRKVTQGTLQPTLYQIRTNGSALCTRCIQINTDSSLLNSEFCFILKVPFESEDNQGIVYAWVGRASDPDEAKLAEDILNTMFDASYSKQVINEGEEPENFFWVGIGAQKPYDDDAEYMKHTRLFRCSNEKGYFAVTEKCSDFCQDDLADDDIMLLDNGQEVYMWVGTQTSQVEIKLSLKACQVYIQHTRSKEHERPRRLRLVRKGNEQRAFTRCFHAWSTFRQAPA
